From patent publication US11555006B2, “Elucidation of novel 13-series resolvins that increase with atorvastatin and clear infections” (The Brigham and Women's Hospital, Inc., priority 2015, dated 2023)
Some results were stated once for a whole list of compounds, not compound by compound. For at least one compound, name, drawing or mass did not settle the structure.

Test system: human neutrophil-endothelial cell co-incubations
Test: Lipid mediator levels in human endothelial cell incubations and neutrophil-endothelial cell co-incubations
Assay type: cell-based
Conditions: human endothelial cells; L-NAME 25 μM, 1400 W 10 μM

SMILES | reduction of atorvastatin-mediated RvT increases
CC(=N)NCc1cccc(CN)c1 [1400 W] | 70-90%
COC(=O)[C@@H](N)CCCNC(=N)N[N+](=O)[O-] [L-NAME, L-NG-Nitroarginine Methyl Ester] | 70-90%
